Test results published in PMC7819943, “Rice protein-binding microarrays: a tool to detect cis-acting elements near promoter regions in rice”.
The other results are listed elsewhere or left out.

Target: T1, OsSMF1 (Oryza sativa, UniProt Q6ZLB0 1-436)
T1 sequence: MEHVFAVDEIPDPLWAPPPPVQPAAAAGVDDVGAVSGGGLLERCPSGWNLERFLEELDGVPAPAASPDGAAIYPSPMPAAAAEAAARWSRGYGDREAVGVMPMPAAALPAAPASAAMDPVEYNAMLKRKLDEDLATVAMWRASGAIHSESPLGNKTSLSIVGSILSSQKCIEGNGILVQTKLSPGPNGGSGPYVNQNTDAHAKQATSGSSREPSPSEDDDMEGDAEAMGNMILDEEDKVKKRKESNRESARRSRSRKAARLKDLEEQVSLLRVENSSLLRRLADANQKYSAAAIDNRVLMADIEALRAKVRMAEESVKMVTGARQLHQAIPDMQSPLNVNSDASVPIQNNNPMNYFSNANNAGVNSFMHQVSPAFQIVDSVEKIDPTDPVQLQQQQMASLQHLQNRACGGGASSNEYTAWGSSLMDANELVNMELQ
Assay: protein-binding microarray (RPBM); PBS, 2% BSA, 51.3 ng/ul salmon testes DNA, 50 uM zinc acetate, 200 nM TF, 25 C, 1 h; high values mean tight binding
Conditions: protein: recombinant; tags: N-terminal polyhistidine and DsRed monomer fusion (pET32a); chain copies: 2; label: CyDye5-dUTP incorporated in the synthesized complementary strand; 3' TTTTT single-stranded linker to array surface; dsDNA, one strand shown
How it was run: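 Using Ni–NTA, transcription factors fused N-terminally to polyhistidine and DsRed were purified after expression in E. coli BL21-CodonPlus. These were incubated at 200 nM with a blocked, double-stranded custom Agilent array for 1 h at 25 °C in a buffer containing 50 µM zinc acetate, and the array was washed. The binding signal is per-feature fluorescence intensity (arbitrary units) on an Axon 4000B scanner.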

Sequence	binding signal
GTAAAGCCTCGATATATCGATCGATTCCAGCTGTGGCACCCGGAGTCACCTAGTGCAG	3620 fluorescence intensity (a.u.)
ATATGCCCTTAAATGATGCTGACGATGTAAATGAGCCTCTCGGAGTCACCTAGTGCAG	7850 fluorescence intensity (a.u.)
CATTGAATTTGACGCCGCCGTTGCTCATGTACCTCGATGCCGGAGTCACCTAGTGCAG	3170 fluorescence intensity (a.u.)
AATGTCACATTGTGACGTGCTTACACAATGCCACCTAATCCGGAGTCACCTAGTGCAG	7300 fluorescence intensity (a.u.)
ATTTGTCGGTCCACCTCTATTTCACGCCAACTATTTTATGCGGAGTCACCTAGTGCAG	3180 fluorescence intensity (a.u.)
TTATTGTAGCACCACATTGTCAAATCATGGCGCAAGTAGGCGGAGTCACCTAGTGCAG	23000 fluorescence intensity (a.u.)
TCAAACTGCTGACGTACGCACGCCGTGAGACGCCGCCGCACGGAGTCACCTAGTGCAG	15400 fluorescence intensity (a.u.)
ACAATGAGATTGTGTCACTGTCAGTCTGTCACTGATCACTCGGAGTCACCTAGTGCAG	3640 fluorescence intensity (a.u.)
ATTCTGTGGTGGTAAAGACGTTAAACGTGTATGACTCCACCGGAGTCACCTAGTGCAG	3500 fluorescence intensity (a.u.)
TCCACATGCTAATTTGTGGTGTCAGATACCTGAATACTCCCGGAGTCACCTAGTGCAG	41400 fluorescence intensity (a.u.)
CGCCGCCGCCGCCGTGGCGCCGCCCTCCTCCTCTCCCGCCCGGAGTCACCTAGTGCAG	5660 fluorescence intensity (a.u.)
AAACTGAAATGGGCCCACCCACCTCTCGTCTGCTACGTGGCGGAGTCACCTAGTGCAG	5310 fluorescence intensity (a.u.)
CTGACGAGCAGAACATTAGCTATCCTATCCAGAATAGTTTCGGAGTCACCTAGTGCAG	47400 fluorescence intensity (a.u.)
ACTCTTCATTCTTTTAATCTCATCTAGCTAGGAGATACACCGGAGTCACCTAGTGCAG	13000 fluorescence intensity (a.u.)
TGACTTCACCGCACCGCGCCAGAGAGGGGAGGTGTCACTTCGGAGTCACCTAGTGCAG	3760 fluorescence intensity (a.u.)
TAGCTAGCATGAATATGCAGCTGCCTGCCTGCAGCCACGTCGGAGTCACCTAGTGCAG	5900 fluorescence intensity (a.u.)
CAGTCGTCAGGCAGCACACAAGCGAGAAAGGTTTGCAAACCGGAGTCACCTAGTGCAG	31700 fluorescence intensity (a.u.)
TATGTTATCGTTACCCAACTTAATCGCACAACATCGCATTCGGAGTCACCTAGTGCAG	3340 fluorescence intensity (a.u.)
CTTTGCCCGCCGATGATGCGTGCGGTGTCCAATTGTTCTCCGGAGTCACCTAGTGCAG	3260 fluorescence intensity (a.u.)
CAAGCAATGCAAGGCAAGAGGTAATTGGCCGTGGAATCCACGGAGTCACCTAGTGCAG	4720 fluorescence intensity (a.u.)
ACGCGGAGGCATCCACGTCGCCCGCGAGCGCTGGGAGGCGCGGAGTCACCTAGTGCAG	4760 fluorescence intensity (a.u.)

In a second layout: results already given.
Sequence | binding signal
TCAAACTGCTGACGTACGCACGCCGTGAGACGCCGCCGCACGGAGTCACCTAGTGCAG | 15400 fluorescence intensity (a.u.)
ACAATGAGATTGTGTCACTGTCAGTCTGTCACTGATCACTCGGAGTCACCTAGTGCAG | 3640 fluorescence intensity (a.u.)

Following part

Sequence	binding signal
ACATAATTGTATTATGCAGAACCAAAGCAGGCCACGTGAGCGGAGTCACCTAGTGCAG	5470 fluorescence intensity (a.u.)
TATAAACATATGAGAGCTGACATGGAAAGTTACAGGGGCTCGGAGTCACCTAGTGCAG	5410 fluorescence intensity (a.u.)
TTATATACTCCCTCTTTCCACGTAAGTTACATTTATTACTCGGAGTCACCTAGTGCAG	7340 fluorescence intensity (a.u.)
ATCATTACCTTATGTCTCTAACTCTATGCTTACGTGCTTACGGAGTCACCTAGTGCAG	3910 fluorescence intensity (a.u.)
GACTTAACGCCGTACGCAGCGGAGGATGGGTGGGTGGGCTCGGAGTCACCTAGTGCAG	4040 fluorescence intensity (a.u.)
CGCAGGGGTGTGTGTCACACTGTCACCTTTGGCGTGACGGCGGAGTCACCTAGTGCAG	4620 fluorescence intensity (a.u.)
GATGGCTACCTAGCTGACACGCAACGCCGGCCTCCGGATCCGGAGTCACCTAGTGCAG	3570 fluorescence intensity (a.u.)
CGCTCAGATCCAACGCACCACGTCGCTCCCACCTCCCTTCCGGAGTCACCTAGTGCAG	6050 fluorescence intensity (a.u.)
AATAATGCAACCTTTGCACGTAAGCAACTACTCCCTCCGTCGGAGTCACCTAGTGCAG	4610 fluorescence intensity (a.u.)
AGCATAAAATGTAGGTGAGTCAATTGCGTGTGGCCTTCAACGGAGTCACCTAGTGCAG	6740 fluorescence intensity (a.u.)
GAAGCCCTCCACATCGATCGCATCCATCATCCTCATCGTCCGGAGTCACCTAGTGCAG	4630 fluorescence intensity (a.u.)
ACATGAGATTTTGAGTGGATGTGATACATCTTAGGACAATCGGAGTCACCTAGTGCAG	3230 fluorescence intensity (a.u.)
TGTGCGGGGCCCACCCGGTGACGAGCCTCTCTCTTCCCCTCGGAGTCACCTAGTGCAG	3840 fluorescence intensity (a.u.)
TGCCATGTAAGCGCCACGTCAATGCCACATGGGACGGAGACGGAGTCACCTAGTGCAG	10300 fluorescence intensity (a.u.)
CCACTTGGCGCGGGAACCCGCTCGAGCGGTCGAGCCGGACCGGAGTCACCTAGTGCAG	3420 fluorescence intensity (a.u.)
ACCGGCCCACAACGACCCAGACACTCTCGCCGTCGCCGCCCGGAGTCACCTAGTGCAG	3140 fluorescence intensity (a.u.)
CAGAAAAGCAGTTGTGTTTGTCATTGATACAAGTGGAAGCCGGAGTCACCTAGTGCAG	3630 fluorescence intensity (a.u.)
TTTTACATGATTGGATGACAAAGCCTATTTCGTTTTGTTGCGGAGTCACCTAGTGCAG	5400 fluorescence intensity (a.u.)
GTGGGGCCCACGTCGTCGCCGTGGCAGCTAAACACAACTCCGGAGTCACCTAGTGCAG	5540 fluorescence intensity (a.u.)
GATCCAACACGTGTCCCCTACCCACGACACGTGGCAACCCCGGAGTCACCTAGTGCAG	36500 fluorescence intensity (a.u.)
ATTTTCAACCCCGTCACATGTGACTAGTTATCGGATCGCACGGAGTCACCTAGTGCAG	4260 fluorescence intensity (a.u.)
